Test results as given in the supplement of paper PMC10849652.
The list shows a part of the results.

Sequences of proteins named here, by UniProt entry; tags and fusion partners are left off. A change or cut given only in a name is not applied to a line headed by its entry.
UniProt P35613: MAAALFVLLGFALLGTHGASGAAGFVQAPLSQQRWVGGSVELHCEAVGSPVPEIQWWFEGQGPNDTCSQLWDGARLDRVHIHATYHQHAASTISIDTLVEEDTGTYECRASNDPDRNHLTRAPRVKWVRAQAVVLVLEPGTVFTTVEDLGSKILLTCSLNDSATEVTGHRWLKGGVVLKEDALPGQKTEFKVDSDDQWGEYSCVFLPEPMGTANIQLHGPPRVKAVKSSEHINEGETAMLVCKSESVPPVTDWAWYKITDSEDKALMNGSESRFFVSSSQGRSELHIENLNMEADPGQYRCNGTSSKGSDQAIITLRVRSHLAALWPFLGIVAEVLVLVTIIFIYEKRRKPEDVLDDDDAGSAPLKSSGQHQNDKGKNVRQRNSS
UniProt Q96RR4, whole entry, looked up: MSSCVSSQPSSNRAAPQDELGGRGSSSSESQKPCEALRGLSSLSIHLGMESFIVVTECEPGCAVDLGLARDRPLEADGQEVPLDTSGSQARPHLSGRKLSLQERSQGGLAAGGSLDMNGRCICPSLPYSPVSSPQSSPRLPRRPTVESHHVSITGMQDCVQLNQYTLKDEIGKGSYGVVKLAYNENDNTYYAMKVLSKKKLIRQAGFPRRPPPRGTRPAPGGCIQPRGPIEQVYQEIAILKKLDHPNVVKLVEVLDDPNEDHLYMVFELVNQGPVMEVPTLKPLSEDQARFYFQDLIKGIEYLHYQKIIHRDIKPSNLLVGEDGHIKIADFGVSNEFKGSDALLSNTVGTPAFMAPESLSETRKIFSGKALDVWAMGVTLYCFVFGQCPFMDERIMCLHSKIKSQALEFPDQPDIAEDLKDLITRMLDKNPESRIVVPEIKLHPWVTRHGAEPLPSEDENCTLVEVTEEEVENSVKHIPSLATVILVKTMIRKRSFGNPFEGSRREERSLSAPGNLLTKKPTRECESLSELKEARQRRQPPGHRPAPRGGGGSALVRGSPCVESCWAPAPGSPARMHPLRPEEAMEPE
UniProt P43251: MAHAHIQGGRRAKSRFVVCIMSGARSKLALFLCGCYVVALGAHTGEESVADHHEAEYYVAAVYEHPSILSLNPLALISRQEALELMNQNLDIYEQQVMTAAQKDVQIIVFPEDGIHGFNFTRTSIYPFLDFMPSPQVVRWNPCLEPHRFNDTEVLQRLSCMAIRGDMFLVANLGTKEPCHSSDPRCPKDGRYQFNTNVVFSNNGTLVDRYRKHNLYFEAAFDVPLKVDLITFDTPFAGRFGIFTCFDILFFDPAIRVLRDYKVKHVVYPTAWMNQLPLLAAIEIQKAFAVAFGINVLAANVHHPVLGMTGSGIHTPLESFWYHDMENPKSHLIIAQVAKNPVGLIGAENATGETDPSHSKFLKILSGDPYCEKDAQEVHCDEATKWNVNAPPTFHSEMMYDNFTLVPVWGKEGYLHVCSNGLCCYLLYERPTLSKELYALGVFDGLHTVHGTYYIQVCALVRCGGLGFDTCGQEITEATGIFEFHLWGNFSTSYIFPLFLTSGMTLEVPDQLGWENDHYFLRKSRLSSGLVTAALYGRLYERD
UniProt O60566, whole entry, looked up: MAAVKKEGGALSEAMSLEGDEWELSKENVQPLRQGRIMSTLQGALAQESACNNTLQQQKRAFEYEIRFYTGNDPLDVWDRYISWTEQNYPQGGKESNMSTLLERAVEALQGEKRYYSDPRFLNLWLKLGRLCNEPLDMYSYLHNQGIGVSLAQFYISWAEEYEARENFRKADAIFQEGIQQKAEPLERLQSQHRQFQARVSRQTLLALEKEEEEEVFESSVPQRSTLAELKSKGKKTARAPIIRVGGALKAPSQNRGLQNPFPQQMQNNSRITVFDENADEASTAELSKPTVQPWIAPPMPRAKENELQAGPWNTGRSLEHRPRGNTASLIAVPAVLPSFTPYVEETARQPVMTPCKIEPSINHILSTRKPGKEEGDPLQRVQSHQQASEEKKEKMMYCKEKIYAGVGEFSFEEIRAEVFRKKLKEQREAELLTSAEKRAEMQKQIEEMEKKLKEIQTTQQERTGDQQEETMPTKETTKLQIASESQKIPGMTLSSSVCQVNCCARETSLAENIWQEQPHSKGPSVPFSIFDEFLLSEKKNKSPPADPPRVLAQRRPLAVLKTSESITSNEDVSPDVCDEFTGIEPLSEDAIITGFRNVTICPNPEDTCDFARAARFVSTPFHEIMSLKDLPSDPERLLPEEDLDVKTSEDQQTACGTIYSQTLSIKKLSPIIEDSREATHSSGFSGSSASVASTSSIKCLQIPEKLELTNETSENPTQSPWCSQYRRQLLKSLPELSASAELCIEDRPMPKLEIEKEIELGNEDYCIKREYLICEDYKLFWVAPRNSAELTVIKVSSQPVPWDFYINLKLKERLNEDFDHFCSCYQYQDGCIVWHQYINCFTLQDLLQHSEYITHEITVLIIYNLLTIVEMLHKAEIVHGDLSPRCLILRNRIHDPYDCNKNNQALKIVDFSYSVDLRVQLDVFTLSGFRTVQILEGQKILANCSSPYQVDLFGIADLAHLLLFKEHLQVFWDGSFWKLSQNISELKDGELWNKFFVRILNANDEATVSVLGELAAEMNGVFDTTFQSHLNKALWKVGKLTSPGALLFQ
UniProt Q8N8R5: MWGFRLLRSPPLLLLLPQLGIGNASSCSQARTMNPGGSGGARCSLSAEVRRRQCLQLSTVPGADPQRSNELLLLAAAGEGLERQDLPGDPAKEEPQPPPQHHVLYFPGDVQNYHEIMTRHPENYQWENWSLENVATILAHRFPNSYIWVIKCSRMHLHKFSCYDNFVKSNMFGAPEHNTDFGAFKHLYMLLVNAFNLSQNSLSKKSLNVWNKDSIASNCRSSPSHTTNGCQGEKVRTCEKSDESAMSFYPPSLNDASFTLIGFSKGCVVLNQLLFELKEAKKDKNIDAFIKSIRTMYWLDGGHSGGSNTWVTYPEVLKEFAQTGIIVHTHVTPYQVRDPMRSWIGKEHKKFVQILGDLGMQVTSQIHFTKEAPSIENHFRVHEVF
UniProt Q9H7E9: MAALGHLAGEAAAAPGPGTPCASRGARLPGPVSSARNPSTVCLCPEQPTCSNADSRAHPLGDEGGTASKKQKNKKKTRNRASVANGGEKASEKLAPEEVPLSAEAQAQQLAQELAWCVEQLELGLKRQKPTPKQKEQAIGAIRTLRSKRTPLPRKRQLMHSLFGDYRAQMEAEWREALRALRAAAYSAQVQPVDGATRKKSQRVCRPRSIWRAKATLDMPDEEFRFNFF
UniProt P00915: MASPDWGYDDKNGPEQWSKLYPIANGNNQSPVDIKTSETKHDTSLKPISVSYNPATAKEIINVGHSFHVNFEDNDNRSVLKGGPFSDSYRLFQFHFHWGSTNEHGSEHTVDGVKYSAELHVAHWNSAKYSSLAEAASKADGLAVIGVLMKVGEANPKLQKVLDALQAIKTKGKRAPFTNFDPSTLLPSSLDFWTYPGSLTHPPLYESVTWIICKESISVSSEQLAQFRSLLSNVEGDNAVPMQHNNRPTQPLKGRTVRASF
UniProt Q9NSG2: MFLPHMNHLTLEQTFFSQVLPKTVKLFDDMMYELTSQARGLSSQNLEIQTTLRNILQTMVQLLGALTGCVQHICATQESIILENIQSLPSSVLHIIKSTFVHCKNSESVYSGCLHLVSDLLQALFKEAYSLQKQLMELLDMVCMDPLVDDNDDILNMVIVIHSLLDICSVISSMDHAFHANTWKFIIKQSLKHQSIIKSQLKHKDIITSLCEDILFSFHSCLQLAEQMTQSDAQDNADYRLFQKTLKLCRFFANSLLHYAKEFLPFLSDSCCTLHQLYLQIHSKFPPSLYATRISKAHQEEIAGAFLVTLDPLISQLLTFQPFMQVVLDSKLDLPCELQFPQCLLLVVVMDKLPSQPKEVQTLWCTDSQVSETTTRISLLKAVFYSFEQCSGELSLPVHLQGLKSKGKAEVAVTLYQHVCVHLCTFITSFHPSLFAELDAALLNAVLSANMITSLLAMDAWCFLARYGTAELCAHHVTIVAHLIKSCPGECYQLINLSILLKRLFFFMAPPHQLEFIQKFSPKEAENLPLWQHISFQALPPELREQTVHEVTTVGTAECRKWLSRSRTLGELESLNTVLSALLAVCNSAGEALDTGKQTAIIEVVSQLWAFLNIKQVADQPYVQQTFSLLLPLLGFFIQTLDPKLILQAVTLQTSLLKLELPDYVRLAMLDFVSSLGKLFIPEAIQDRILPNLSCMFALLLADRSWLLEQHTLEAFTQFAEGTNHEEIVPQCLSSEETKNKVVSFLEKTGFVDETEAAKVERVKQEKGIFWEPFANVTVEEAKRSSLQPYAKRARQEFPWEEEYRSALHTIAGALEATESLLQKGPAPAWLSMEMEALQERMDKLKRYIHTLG
UniProt Q6PH81: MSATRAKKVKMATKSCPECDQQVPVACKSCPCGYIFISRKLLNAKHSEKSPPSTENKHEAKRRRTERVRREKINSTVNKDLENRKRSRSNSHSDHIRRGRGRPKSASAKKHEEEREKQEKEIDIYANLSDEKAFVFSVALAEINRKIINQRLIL
UniProt Q7Z4R8: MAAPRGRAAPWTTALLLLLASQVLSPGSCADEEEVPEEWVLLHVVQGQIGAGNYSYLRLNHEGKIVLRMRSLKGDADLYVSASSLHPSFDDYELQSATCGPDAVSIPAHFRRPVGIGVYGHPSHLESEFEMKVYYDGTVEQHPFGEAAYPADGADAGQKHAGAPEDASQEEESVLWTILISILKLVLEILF
UniProt P04003: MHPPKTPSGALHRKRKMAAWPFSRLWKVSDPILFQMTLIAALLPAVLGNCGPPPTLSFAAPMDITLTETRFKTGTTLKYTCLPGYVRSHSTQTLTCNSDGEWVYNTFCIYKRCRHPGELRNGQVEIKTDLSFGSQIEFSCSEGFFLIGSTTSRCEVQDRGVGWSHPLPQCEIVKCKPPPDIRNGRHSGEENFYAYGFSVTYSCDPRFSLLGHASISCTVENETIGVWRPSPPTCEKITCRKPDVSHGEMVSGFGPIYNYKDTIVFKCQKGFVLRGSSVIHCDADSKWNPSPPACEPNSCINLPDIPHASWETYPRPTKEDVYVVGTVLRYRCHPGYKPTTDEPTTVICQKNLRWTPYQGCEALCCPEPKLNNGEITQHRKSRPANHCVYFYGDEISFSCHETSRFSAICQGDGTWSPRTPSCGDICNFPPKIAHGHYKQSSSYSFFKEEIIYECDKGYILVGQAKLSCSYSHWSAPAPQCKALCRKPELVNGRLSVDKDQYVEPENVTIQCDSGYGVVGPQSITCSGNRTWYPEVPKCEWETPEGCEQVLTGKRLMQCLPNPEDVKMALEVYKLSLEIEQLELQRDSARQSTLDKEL
UniProt Q9NSK7: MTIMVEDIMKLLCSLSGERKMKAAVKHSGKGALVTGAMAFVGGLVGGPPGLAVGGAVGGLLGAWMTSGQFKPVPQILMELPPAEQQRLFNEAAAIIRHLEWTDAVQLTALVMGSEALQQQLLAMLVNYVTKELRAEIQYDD
UniProt Q5BKX5: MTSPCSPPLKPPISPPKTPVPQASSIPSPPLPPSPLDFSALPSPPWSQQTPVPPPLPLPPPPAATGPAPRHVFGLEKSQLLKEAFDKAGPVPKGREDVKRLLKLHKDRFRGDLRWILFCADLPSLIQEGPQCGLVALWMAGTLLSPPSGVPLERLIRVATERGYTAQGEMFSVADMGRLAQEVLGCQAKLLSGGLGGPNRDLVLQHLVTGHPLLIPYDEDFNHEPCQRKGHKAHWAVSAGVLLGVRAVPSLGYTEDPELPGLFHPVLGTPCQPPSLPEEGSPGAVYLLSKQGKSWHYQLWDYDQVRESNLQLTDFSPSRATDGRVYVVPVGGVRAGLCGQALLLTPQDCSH
UniProt Q5JPI3: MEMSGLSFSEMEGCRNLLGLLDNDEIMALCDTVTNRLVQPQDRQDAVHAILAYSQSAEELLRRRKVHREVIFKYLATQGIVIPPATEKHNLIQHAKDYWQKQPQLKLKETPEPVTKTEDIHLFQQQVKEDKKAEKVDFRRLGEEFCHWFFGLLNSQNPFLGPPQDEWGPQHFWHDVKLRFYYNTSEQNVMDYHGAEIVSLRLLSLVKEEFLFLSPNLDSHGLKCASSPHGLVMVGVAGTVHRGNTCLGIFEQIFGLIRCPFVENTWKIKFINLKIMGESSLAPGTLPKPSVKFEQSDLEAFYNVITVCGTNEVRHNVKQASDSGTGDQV
UniProt Q96LT7: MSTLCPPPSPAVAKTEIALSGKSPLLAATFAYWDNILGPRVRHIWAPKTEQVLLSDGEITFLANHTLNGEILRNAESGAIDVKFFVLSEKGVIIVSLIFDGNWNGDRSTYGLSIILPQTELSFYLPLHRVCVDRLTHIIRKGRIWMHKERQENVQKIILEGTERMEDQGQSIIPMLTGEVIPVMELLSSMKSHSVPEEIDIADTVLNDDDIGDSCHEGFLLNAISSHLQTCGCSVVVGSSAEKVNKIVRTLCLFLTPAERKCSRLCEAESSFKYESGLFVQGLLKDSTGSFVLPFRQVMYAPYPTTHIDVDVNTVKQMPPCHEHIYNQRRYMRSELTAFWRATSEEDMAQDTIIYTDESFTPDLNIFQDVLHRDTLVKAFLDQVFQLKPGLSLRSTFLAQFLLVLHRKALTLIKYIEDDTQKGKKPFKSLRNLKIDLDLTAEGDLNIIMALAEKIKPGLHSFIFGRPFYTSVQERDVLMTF

Key:
Experiment in all cases: log2 fold change, soluble protein after heating vs DMSO (PISA); higher = thermal stabilisation; K562 cells, 10 uM, 30 min; active = over 0.2 and 3.5 SD of the protein, either way, in both replicates (recomputed)
[1] = compound: CC[C@@H]1C(=O)N(C)c2cnc(Nc3ccc(C(=O)NC4CCN(C)CC4)cc3OC)nc2N1C1CCCC1
How it was run: (§1)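 K562 cells at 2×10^6 cells/mL were treated with 10 μM compound for 30 min. Aliquots were heated for 3 min across 48°C-58°C, pooled, and extracted in PBS with 0.5% NP-40 at 4°C; soluble protein was the supernatant after 21,000xg for 90 min. Soluble protein was quantified by TMTpro 16plex LC-MS/MS with channel sums equalised, and reported as log2 fold change in thermal stability against DMSO controls, with values from duplicates.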

[2] = compound: CC[C@@H]1C(=O)N(C)c2cnc(Nc3ccc(C(=O)N[C@H]4CC[C@H](N5CCN(CC6CC6)CC5)CC4)cc3OC)nc2N1C(C)C [volasertib]
How it was run: as §1

[3] = compound: CC[C@H](C)N1C=C(C2=C(C=C(C=C21)C3=CN=C(C=C3)N4CCNCC4)C(=O)NCC5=C(C=C(NC5=O)C)C)C
How it was run: as §1

[4] = compound: CC[C@H](C)[C@@H](C(=O)N[C@@H]([C@@H](C)O)C(=O)N[C@@H](CC(C)C)C(=O)[C@]1(CO1)C)NC(=O)[C@H]([C@@H](C)CC)N(C)C(=O)C [epoxomicin]
How it was run: as §1

[5] = compound: CCn1c(C(=O)N(C2CC2)C2CC2)cc2c3c(ncn3C)c(Nc3cc(C)n(C)n3)nc21
How it was run: as §1

[6] = compound: CCn1cc(-c2ccnc3[nH]c(-c4cccc(CN(C)C)c4)cc23)c(-c2ccc(NC(=O)N(C)C)cc2)n1
How it was run: as §1

[7] = compound: CN(C)CC(=O)Nc1ccc2[nH]c(=O)c3ccccc3c2c1
How it was run: as §1

[8] = compound: CN(CCOC1=CC=C(C=C1)C[C@H]2C(=O)NC(=O)S2)C3=CC=CC=N3 (racemic) [rosiglitazone]
How it was run: as §1

[9] = compound: CN1C2=C(C3=C1C(=O)N(N=C3)CC4=CC(=CC=C4)N)SC(=C2)S(=O)C
How it was run: as §1

[10] = compound: CN1CCC(CNc2ccc3ncc(-c4cccc(OC(F)(F)F)c4)n3n2)CC1
How it was run: as §1

Target	log2 fold change [1]	log2 fold change [2]	log2 fold change [3]	log2 fold change [4]	log2 fold change [5]	log2 fold change [6]	log2 fold change [7]	log2 fold change [8]	log2 fold change [9]	log2 fold change [10]
BSG (UniProt P35613)	inactive: 0.079	inactive: 0.061	inactive: -0.036	inactive: -0.004	inactive: 0.084	inactive: -0.008	inactive: -0.018	inactive: -0.01	inactive: -0.042	inactive: 0.162
C9orf40 (UniProt Q8IXQ3)	inactive: -0.018	inactive: 0.114	inactive: -0.082	inactive: -0.019	inactive: -0.003	inactive: -0.121	inactive: -0.024	inactive: 0.037	inactive: 0.059	inactive: -0.013
CAMKK2 (UniProt Q96RR4)	inactive: 0.374	active: 0.617	inactive: 0.014	inactive: 0.211		inactive: -0.093	inactive: 0.145		inactive: -0.008	inactive: 0.045
BTD isoform 3 (UniProt P43251)	inactive: 0.14	inactive: -0.034	inactive: 0.018	inactive: -0.06	inactive: -0.013		inactive: 0.166	inactive: -0.011	inactive: -0.008	
BUB1B isoform 3 (UniProt O60566)	inactive: -0.127	active: -0.66	inactive: 0.056	inactive: 0.02		inactive: 0.043	inactive: 0.065		inactive: 0.013	inactive: -0.078
C2orf69 (UniProt Q8N8R5)	inactive: 0.018	inactive: -0.005	inactive: -0.002	inactive: -0.036	inactive: 0.022	inactive: 0.101	inactive: -0.006	inactive: 0.049	inactive: -0.147	inactive: 0.17
CAD (UniProt P27708)	inactive: 0.006	inactive: 0.009	inactive: 0.019	inactive: 0.034		inactive: -0.08	inactive: 0.022		inactive: -0.028	active: -0.458
C8orf33 isoform 2 (UniProt Q9H7E9)	inactive: 0.212	inactive: 0.576	inactive: -0.084	inactive: -0.427		inactive: 0.333	inactive: -0.229	inactive: 0.015	inactive: 0.325	inactive: 0.442
C11orf54 (UniProt Q9H0W9)	inactive: 0.011	inactive: 0.069	inactive: 0.02	inactive: -0.063	inactive: 0.036	inactive: -0.069	inactive: 0.035	inactive: 0.007	inactive: -0.002	inactive: -0.102
CA1 (UniProt P00915)	inactive: 0	inactive: -0.02	inactive: 0.01	inactive: 0.016		inactive: 0.042	inactive: -0.002		inactive: -0.034	inactive: 0.134
C4A (UniProt P0C0L4)	inactive: -0.147	inactive: -0.216	inactive: -0.048	inactive: -0.316		inactive: 0.197	inactive: 0		inactive: 0.223	inactive: -0.32
BYSL (UniProt Q13895)	inactive: -0.009	inactive: -0.113	inactive: 0.072	inactive: 0.118		inactive: 0.053	inactive: 0.079		inactive: 0.09	inactive: 0.053
C1orf112 (UniProt Q9NSG2)	inactive: -0.103	inactive: -0.211				inactive: -0.094	inactive: -0.018		inactive: -0.166	inactive: -0.002
C12orf65 (UniProt Q9H3J6)	inactive: 0.196		inactive: -0.119		inactive: 0.032		inactive: -0.098	inactive: -0.057	inactive: 0.059	
CAMK1 (UniProt Q14012)	inactive: -0.057							inactive: 0.235		
C5orf30 (UniProt Q96GV9)		inactive: 0.001		inactive: 0.165						
CAPN1 (UniProt E9PLX0)	inactive: -0.068				inactive: -0.127			inactive: 0.294		

Target	log2 fold change [1]	log2 fold change [2]	log2 fold change [3]	log2 fold change [4]	log2 fold change [5]	log2 fold change [6]	log2 fold change [7]	log2 fold change [8]	log2 fold change [9]	log2 fold change [10]
C16orf87 (UniProt Q6PH81)	inactive: -0.018		inactive: 0.072	inactive: 0.102			inactive: -0.036	inactive: 0.174		
CAPN15 (UniProt O75808)		inactive: -0.005		inactive: -0.103	inactive: 0.009	inactive: -0.007		inactive: 0.053		inactive: 0.178
C6orf120 (UniProt Q7Z4R8)	inactive: 0.066	inactive: -0.101	inactive: 0.019				inactive: -0.155		inactive: -0.245	
C2orf76 (UniProt Q3KRA6)	inactive: -0.307				inactive: 0.053		inactive: -0.003	inactive: 0.029	inactive: -0.091	
C4orf33 (UniProt Q8N1A6)	inactive: 0.044	inactive: 0.066	inactive: 0.007	inactive: -0.084		inactive: -0.062	inactive: -0.007		inactive: 0.009	inactive: -0.027
C9orf85 isoform 1 (UniProt Q96MD7)		inactive: -0.02	inactive: 0	inactive: 0.057	inactive: 0.019		inactive: 0.02		inactive: 0.031	
C4BPA (UniProt P04003)	inactive: 0.64		inactive: 0.162	inactive: -0.268	inactive: 0.39	inactive: -0.284		inactive: -0.034		inactive: 0.049
CARD19 isoform 2 (UniProt Q96LW7)	inactive: -0.007			inactive: 0.081		inactive: -0.043	inactive: -0.025	inactive: 0.074	inactive: 0.047	inactive: -0.078
C1orf167 isoform 2 (UniProt Q5SNV9)		inactive: 0.01	inactive: 0.015	inactive: -0.085	inactive: 0.029		inactive: -0.259	inactive: 0.075	inactive: 0.215	
CALML3 (UniProt P27482)	inactive: 0.165	inactive: 0.045		inactive: -0.03					inactive: 1.85	
C19orf12 (UniProt Q9NSK7)	inactive: -0.137	inactive: -0.062	inactive: 0.048	inactive: 0.013				inactive: 0.071		
C19orf54 (UniProt Q5BKX5)	inactive: 0.054	inactive: -0.06		inactive: 0.094		inactive: 0.056	inactive: 0.036		inactive: -0.177	inactive: -0.141
C11orf74 (UniProt Q86VG3)	inactive: -0.013		inactive: 0.212	inactive: 0.21	inactive: -0.072	inactive: 0.13	inactive: 0.08			inactive: -0.014
C3orf38 (UniProt Q5JPI3)	inactive: 0.033	inactive: -0.191	inactive: 0	inactive: -0.125			inactive: 0.065	inactive: 0.085	inactive: -0.005	
C9orf72 (UniProt Q96LT7)		inactive: -0.089	inactive: 0.062	inactive: -0.008		inactive: 0.226	inactive: 0.075		inactive: -0.094	inactive: 0.209
CA2 (UniProt P00918)	inactive: 0.427	inactive: 0.13	inactive: 0.064		inactive: -0.122		inactive: 0.22	inactive: 0.122	inactive: 0.333	
BTRC (UniProt Q9Y297)		inactive: -0.076	inactive: -0.016	inactive: 0.148	inactive: -0.007	inactive: -0.027	inactive: 0.029	inactive: -0.043	inactive: -0.063	inactive: 0.048

Fetched one by one from the entries so far (2):
Target	log2 fold change [1]	log2 fold change [2]	log2 fold change [3]	log2 fold change [4]	log2 fold change [5]	log2 fold change [6]	log2 fold change [7]	log2 fold change [8]	log2 fold change [9]	log2 fold change [10]
C11orf74 (UniProt Q86VG3)	inactive: -0.013		inactive: 0.212	inactive: 0.21	inactive: -0.072	inactive: 0.13	inactive: 0.08			inactive: -0.014
C2orf69 (UniProt Q8N8R5)	inactive: 0.018	inactive: -0.005	inactive: -0.002	inactive: -0.036	inactive: 0.022	inactive: 0.101	inactive: -0.006	inactive: 0.049	inactive: -0.147	inactive: 0.17
